For one substance, binding results are on record in publication PMC7226526.

Chains of the proteins cited; added tags and fusions are not shown.
UniProt Q13485: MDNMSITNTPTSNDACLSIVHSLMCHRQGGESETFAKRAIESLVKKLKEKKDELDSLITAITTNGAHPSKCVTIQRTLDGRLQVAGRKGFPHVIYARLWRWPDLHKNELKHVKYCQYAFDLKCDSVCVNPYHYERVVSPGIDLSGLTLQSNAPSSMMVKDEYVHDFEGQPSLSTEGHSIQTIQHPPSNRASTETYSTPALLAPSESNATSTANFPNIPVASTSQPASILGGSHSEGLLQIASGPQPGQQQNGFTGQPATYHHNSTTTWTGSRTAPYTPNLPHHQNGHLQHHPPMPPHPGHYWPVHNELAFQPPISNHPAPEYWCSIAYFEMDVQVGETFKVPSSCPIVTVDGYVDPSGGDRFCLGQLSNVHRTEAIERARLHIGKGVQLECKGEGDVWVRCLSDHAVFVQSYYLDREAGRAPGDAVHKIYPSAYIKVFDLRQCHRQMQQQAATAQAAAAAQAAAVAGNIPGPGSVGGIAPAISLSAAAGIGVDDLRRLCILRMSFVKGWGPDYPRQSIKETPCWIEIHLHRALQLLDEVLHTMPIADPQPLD
UniProt O95863: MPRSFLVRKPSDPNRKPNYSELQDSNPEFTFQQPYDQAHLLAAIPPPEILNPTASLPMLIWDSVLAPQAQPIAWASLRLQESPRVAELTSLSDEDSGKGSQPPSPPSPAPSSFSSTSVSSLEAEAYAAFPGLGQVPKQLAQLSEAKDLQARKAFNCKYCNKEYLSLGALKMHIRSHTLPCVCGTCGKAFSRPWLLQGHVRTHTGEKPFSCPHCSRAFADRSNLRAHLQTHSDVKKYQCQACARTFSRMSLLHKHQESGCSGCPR

For the test, the target named is SMAD Family Member 4 (SMAD4) (human (endogenous in human kidney cell lines)) (UniProt Q13485). Description: co-IP; 200 µg total protein of cell lysate incubated with anti-SMAD4 antibody, precipitated with Protein A/G magnetic beads overnight at 4 °C; eluates blotted with anti-SNAIL; cells untreated (control) or treated with 20 mM lactate or 200 µM nicotinamide.

Results are given in words; binding and its absence hold for the method and conditions named. Binding seen in cells or lysates may run through a third protein. Some results given as binding are weak or reduced against the parent protein; the word gives no strength.

For the substance “Zinc finger protein SNAI1 (SNAIL) (from UniProt O95863 1-264)”, the binding entry is reported as “binds”.
